Results are given in words; binding and its absence hold for the method and conditions named. In cells and extracts the contact can be indirect. Here binding means that the protein was enriched with, or labelled near, the bait; the list need not be complete.
T1: UTP14A (human (endogenous in HeLa)) (UniProt Q9BVJ6)
T1 sequence: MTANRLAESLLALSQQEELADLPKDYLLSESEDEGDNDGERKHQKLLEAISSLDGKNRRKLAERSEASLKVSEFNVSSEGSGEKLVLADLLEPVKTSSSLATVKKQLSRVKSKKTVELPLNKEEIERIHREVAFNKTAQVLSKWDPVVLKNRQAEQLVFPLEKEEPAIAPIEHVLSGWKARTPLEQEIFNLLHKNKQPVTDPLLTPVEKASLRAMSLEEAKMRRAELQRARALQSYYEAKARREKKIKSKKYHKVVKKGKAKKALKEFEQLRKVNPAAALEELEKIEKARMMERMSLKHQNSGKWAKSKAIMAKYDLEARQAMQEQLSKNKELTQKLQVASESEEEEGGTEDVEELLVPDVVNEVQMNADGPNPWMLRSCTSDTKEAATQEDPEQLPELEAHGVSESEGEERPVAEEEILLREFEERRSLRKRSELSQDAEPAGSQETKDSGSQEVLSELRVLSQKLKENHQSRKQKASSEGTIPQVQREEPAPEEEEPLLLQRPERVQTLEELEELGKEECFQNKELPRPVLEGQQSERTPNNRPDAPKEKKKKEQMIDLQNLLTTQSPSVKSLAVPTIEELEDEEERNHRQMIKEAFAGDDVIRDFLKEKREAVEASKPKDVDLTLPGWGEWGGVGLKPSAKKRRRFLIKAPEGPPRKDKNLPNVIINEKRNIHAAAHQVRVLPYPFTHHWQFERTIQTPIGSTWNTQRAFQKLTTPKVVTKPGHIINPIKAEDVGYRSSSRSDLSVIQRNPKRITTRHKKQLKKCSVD

Protein sequences, listed by entry. Tags and fused reporters are not part of them. Lines headed by an entry give the natural chain unless they say otherwise; changes in a name come on top.
UniProt Q9H4L4: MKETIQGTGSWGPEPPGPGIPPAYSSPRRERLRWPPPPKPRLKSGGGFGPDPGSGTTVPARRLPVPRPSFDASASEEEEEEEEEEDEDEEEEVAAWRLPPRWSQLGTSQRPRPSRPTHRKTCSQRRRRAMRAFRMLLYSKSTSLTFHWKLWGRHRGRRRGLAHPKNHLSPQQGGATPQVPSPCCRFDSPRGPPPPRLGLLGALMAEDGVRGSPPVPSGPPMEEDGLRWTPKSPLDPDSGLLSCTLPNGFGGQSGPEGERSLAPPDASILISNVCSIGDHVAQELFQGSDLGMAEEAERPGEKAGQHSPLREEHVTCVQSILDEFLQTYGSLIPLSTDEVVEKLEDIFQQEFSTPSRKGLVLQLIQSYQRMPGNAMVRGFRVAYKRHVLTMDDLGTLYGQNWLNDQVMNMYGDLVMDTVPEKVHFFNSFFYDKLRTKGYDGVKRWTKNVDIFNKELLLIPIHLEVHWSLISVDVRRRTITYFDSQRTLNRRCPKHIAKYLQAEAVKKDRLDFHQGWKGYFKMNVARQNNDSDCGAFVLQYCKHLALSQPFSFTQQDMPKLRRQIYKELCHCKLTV
UniProt Q8IZL8: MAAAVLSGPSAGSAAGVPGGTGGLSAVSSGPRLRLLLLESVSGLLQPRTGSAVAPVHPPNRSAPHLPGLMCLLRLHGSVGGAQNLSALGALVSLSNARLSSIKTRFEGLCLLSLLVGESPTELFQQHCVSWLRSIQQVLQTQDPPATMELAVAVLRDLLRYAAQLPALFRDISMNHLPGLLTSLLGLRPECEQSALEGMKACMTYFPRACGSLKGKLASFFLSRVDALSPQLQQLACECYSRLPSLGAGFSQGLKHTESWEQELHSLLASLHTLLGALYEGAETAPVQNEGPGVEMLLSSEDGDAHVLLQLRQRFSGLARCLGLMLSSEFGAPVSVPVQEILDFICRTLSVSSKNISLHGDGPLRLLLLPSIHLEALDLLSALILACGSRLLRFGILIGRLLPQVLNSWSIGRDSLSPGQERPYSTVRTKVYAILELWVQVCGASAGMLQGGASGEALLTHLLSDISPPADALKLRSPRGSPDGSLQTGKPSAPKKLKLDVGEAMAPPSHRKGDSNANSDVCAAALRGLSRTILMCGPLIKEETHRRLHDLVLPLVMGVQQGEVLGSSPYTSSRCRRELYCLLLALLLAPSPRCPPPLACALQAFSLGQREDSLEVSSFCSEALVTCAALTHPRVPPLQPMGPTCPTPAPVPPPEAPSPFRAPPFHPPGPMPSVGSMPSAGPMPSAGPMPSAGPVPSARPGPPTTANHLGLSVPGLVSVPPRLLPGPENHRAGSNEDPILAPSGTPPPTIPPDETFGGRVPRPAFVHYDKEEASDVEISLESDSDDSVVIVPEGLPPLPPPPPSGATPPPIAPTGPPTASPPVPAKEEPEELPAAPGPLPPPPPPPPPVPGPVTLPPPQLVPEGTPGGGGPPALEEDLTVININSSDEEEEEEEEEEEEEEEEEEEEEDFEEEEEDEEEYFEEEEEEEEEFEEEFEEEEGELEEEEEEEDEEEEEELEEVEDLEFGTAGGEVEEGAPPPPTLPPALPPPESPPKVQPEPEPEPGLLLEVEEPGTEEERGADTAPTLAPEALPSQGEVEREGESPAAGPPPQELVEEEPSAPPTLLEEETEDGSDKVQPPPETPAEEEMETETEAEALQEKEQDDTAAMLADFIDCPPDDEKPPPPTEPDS


target: FLAG-SENP3^C532S (human) (UniProt Q9H4L4); assay: affinity purification with mass spectrometry; anti-FLAG IP of lysates of HEK293T cells transiently expressing FLAG-SENP3^C532S or FLAG-SENP5^C713S against mock control; triplicates; label-free quantification (interactors: log2 ratio >= 1, -log10 p value >= 1.3)

Row | binding | Molecule
1 | binds | PELP1 (from UniProt Q8IZL8 1-1130)
2 | binds | TEX10 (protein, UniProt Q9NXF1 1-929) MTKKRKRQHDFQKVKLKVGKKKPKLQNATPTNFKTKTIHLPEQLKEDGTLPTNNRKLNIKDLLSQMHHYNAGVKQSALLGLKDLLSQYPFIIDAHLSNILSEVTAVFTDKDANVRLAAVQLLQFLAPKIRAEQISPFFPLVSAHLSSAMTHITEGIQEDSLKVLDILLEQYPALITGRSSILLKNFVELISHQQLSKGLINRDRSQSWILSVNPNRRLTSQQWRLKVLVRLSKFLQALADGSSRLRESEGLQEQKENPHATSNSIFINWKEHANDQQHIQVYENGGSQPNVSSQFRLRYLVGGLSGVDEGLSSTENLKGFIEIIIPLLIECWVEAVPPQLATPVGNGIEREPLQVMQQVLNIISLLWKLSKQQDETHKLESWLRKNYLIDFKHHFMSRFPYVLKEITKHKRKEPNKSIKHCTVLSNNIDHLLLNLTLSDIMVSLANASTLQKDCSWIEMIRKFVTETLEDGSRLNSKQLNRLLGVSWRLMQIQPNREDTETLIKAVYTLYQQRGLILPVRTLLLKFFSKIYQTEELRSCRFRYRSKVLSRWLAGLPLQLAHLGSRNPELSTQLIDIIHTAAARANKELLKSLQATALRIYDPQEGAVVVLPADSQQRLVQLVYFLPSLPADLLSRLSRCCIMGRLSSSLAAMLIGILHMRSSFSGWKYSAKDWLMSDVDYFSFLFSTLTGFSKEELTWLQSLRGVPHVIQTQLSPVLLYLTDLDQFLHHWDVTEAVFHSLLVIPARSQNFDILQSAISKHLVGLTVIPDSTAGCVFGVICKLLDHTCVVSETLLPFLASCCYSLLYFLLTIEKGEAEHLRKRDKLWGVCVSILALLPRVLRLMLQSLRVNRVGPEELPVVGQLLRLLLQHAPLRTHMLTNAILVQQIIKNITTLKSGSVQEQWLTDLHYCFNVYITGHPQGPSALATVY
3 | binds | LAS1L (protein, UniProt Q9Y4W2 1-734) MSWESGAGPGLGSQGMDLVWSAWYGKCVKGKGSLPLSAHGIVVAWLSRAEWDQVTVYLFCDDHKLQRYALNRITVWRSRSGNELPLAVASTADLIRCKLLDVTGGLGTDELRLLYGMALVRFVNLISERKTKFAKVPLKCLAQEVNIPDWIVDLRHELTHKKMPHINDCRRGCYFVLDWLQKTYWCRQLENSLRETWELEEFREGIEEEDQEEDKNIVVDDITEQKPEPQDDGKSTESDVKADGDSKGSEEVDSHCKKALSHKELYERARELLVSYEEEQFTVLEKFRYLPKAIKAWNNPSPRVECVLAELKGVTCENREAVLDAFLDDGFLVPTFEQLAALQIEYEDGQTEVQRGEGTDPKSHKNVDLNDVLVPKPFSQFWQPLLRGLHSQNFTQALLERMLSELPALGISGIRPTYILRWTVELIVANTKTGRNARRFSAGQWEARRGWRLFNCSASLDWPRMVESCLGSPCWASPQLLRIIFKAMGQGLPDEEQEKLLRICSIYTQSGENSLVQEGSEASPIGKSPYTLDSLYWSVKPASSSFGSEAKAQQQEEQGSVNDVKEEEKEEKEVLPDQVEEEEENDDQEEEEEDEDDEDDEEEDRMEVGPFSTGQESPTAENARLLAQKRGALQGSAWQVSSEDVRWDTFPLGRMPGQTEDPAELMLENYDTMYLLDQPVLEQRLEPSTCKTDTLGLSCGVGSGNCSNSSSSNFEGLLWSQGQLHGLKTGLQLF
4 | binds | UTP14A (protein, UniProt Q9BVJ6 1-771) MTANRLAESLLALSQQEELADLPKDYLLSESEDEGDNDGERKHQKLLEAISSLDGKNRRKLAERSEASLKVSEFNVSSEGSGEKLVLADLLEPVKTSSSLATVKKQLSRVKSKKTVELPLNKEEIERIHREVAFNKTAQVLSKWDPVVLKNRQAEQLVFPLEKEEPAIAPIEHVLSGWKARTPLEQEIFNLLHKNKQPVTDPLLTPVEKASLRAMSLEEAKMRRAELQRARALQSYYEAKARREKKIKSKKYHKVVKKGKAKKALKEFEQLRKVNPAAALEELEKIEKARMMERMSLKHQNSGKWAKSKAIMAKYDLEARQAMQEQLSKNKELTQKLQVASESEEEEGGTEDVEELLVPDVVNEVQMNADGPNPWMLRSCTSDTKEAATQEDPEQLPELEAHGVSESEGEERPVAEEEILLREFEERRSLRKRSELSQDAEPAGSQETKDSGSQEVLSELRVLSQKLKENHQSRKQKASSEGTIPQVQREEPAPEEEEPLLLQRPERVQTLEELEELGKEECFQNKELPRPVLEGQQSERTPNNRPDAPKEKKKKEQMIDLQNLLTTQSPSVKSLAVPTIEELEDEEERNHRQMIKEAFAGDDVIRDFLKEKREAVEASKPKDVDLTLPGWGEWGGVGLKPSAKKRRRFLIKAPEGPPRKDKNLPNVIINEKRNIHAAAHQVRVLPYPFTHHWQFERTIQTPIGSTWNTQRAFQKLTTPKVVTKPGHIINPIKAEDVGYRSSSRSDLSVIQRNPKRITTRHKKQLKKCSVD

target: T1, UTP14A (human (endogenous in HeLa)); assay: affinity purification with mass spectrometry; IP of endogenous UTP14A (antibody crosslinked to protein A/G beads) against IgG control from HeLa cells transfected for 72 h with siControl, siSENP3, siSENP5 or siSENP3/5; 50 mM HEPES, 150 mM NaCl, 1.5 mM MgCl2, 1 mM EGTA, 10% glycerol, 1% Triton X-100, pH 7.2, 10 mM NEM; four replicates; label-free quantification

Row | binding | Molecule
5 | binds | TSR1 (protein, UniProt Q2NL82 1-804) MAAHRPGPLKQQNKAHKGGRHRGRGSAQRDGKGRLALKTLSKKVRKELSRVDQRHRASQLRKQKKEAVLAEKRQLGGKDGPPHQVLVVPLHSRISLPEAMQLLQDRDTGTVHLNELGNTQNFMLLCPRLKHRWFFTSARPGDLHVVLDMAKVADTILFLLDPLEGWDSTGDYCLSCLFAQGLPTYTLAVQGISGLPLKKQIDTRKKLSKAVEKRFPHDKLLLLDTQQEAGMLLRQLANQKQQHLAFRDRRAYLFAHAVDFVPSEENNLVGTLKISGYVRGQTLNVNRLLHIVGYGDFQMKQIDAPGDPFPLNPRGIKPQKDPDMAMEICATDAVDDMEEGLKVLMKADPGRQESLQAEVIPDPMEGEQTWPTEEELSEAKDFLKESSKVVKKVPKGTSSYQAEWILDGGSQSGGEGDEYEYDDMEHEDFMEEESQDESSEEEEEYETMTIGESVHDDLYDKKVDEEAEAKMLEKYKQERLEEMFPDEVDTPRDVAARIRFQKYRGLKSFRTSPWDPKENLPQDYARIFQFQNFTNTRKSIFKEVEEKEVEGAEVGWYVTLHVSEVPVSVVECFRQGTPLIAFSLLPHEQKMSVLNMVVRRDPGNTEPVKAKEELIFHCGFRRFRASPLFSQHTAADKHKLQRFLTADMALVATVYAPITFPPASVLLFKQKSNGMHSLIATGHLMSVDPDRMVIKRVVLSGHPFKIFTKMAVVRYMFFNREDVLWFKPVELRTKWGRRGHIKEPLGTHGHMKCSFDGKLKSQDTVLMNLYKRVFPKWTYDPYVPEPVPWLKSEISSTVPQGGME
6 | binds | NOP14 (protein, UniProt P78316 1-857) MAKAKKVGARRKASGAPAGARGGPAKANSNPFEVKVNRQKFQILGRKTRHDVGLPGVSRARALRKRTQTLLKEYKERDKSNVFRDKRFGEYNSNMSPEEKMMKRFALEQQRHHEKKSIYNLNEDEELTHYGQSLADIEKHNDIVDSDSDAEDRGTLSAELTAAHFGGGGGLLHKKTQQEGEEREKPKSRKELIEELIAKSKQEKRERQAQREDALELTEKLDQDWKEIQTLLSHKTPKSENRDKKEKPKPDAYDMMVRELGFEMKAQPSNRMKTEAELAKEEQEHLRKLEAERLRRMLGKDEDENVKKPKHMSADDLNDGFVLDKDDRRLLSYKDGKMNVEEDVQEEQSKEASDPESNEEEGDSSGGEDTEESDSPDSHLDLESNVESEEENEKPAKEQRQTPGKGLISGKERAGKATRDELPYTFAAPESYEELRSLLLGRSMEEQLLVVERIQKCNHPSLAEGNKAKLEKLFGFLLEYVGDLATDDPPDLTVIDKLVVHLYHLCQMFPESASDAIKFVLRDAMHEMEEMIETKGRAALPGLDVLIYLKITGLLFPTSDFWHPVVTPALVCLSQLLTKCPILSLQDVVKGLFVCCLFLEYVALSQRFIPELINFLLGILYIATPNKASQGSTLVHPFRALGKNSELLVVSAREDVATWQQSSLSLRWASRLRAPTSTEANHIRLSCLAVGLALLKRCVLMYGSLPSFHAIMGPLQALLTDHLADCSHPQELQELCQSTLTEMESQKQLCRPLTCEKSKPVPLKLFTPRLVKVLEFGRKQGSSKEEQERKRLIHKHKREFKGAVREIRKDNQFLARMQLSEIMERDAERKRKVKQLFNSLATQEGEWKALKRKKFKK
